For one test, the target named is T1, Pds5 (S. pombe) (UniProt Q9HFF5).
T1 sequence: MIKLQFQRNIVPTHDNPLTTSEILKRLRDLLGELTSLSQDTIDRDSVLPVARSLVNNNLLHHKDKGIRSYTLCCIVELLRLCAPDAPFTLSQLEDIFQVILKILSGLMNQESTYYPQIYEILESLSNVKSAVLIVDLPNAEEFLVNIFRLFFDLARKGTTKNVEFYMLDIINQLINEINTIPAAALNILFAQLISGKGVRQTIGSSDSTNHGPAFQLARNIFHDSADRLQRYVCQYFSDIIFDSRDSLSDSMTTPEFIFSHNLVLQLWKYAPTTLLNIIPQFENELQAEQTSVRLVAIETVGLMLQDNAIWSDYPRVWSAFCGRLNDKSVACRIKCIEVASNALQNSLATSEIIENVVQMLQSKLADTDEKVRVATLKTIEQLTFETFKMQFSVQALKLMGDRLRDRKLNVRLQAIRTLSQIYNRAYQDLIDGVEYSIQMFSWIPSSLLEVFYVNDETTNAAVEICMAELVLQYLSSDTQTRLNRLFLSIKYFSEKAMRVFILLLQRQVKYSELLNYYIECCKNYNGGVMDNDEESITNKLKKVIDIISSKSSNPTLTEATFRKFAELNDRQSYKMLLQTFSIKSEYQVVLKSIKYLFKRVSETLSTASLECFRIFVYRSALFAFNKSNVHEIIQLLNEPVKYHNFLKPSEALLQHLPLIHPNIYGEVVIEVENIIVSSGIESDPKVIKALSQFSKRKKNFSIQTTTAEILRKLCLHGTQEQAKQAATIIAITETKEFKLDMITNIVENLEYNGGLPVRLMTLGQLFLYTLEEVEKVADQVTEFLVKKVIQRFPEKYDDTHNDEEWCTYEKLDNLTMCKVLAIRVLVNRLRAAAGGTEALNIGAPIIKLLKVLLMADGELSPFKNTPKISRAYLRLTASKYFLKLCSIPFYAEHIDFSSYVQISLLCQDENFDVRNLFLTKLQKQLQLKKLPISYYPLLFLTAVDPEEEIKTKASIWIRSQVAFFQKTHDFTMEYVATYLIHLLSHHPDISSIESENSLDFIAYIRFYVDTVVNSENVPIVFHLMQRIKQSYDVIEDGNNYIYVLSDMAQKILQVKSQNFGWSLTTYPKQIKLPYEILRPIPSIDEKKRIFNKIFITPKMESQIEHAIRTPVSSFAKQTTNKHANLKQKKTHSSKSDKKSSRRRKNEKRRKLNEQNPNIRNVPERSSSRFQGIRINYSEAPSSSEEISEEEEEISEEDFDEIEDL
In words: two-hybrid; Gal4 system (BD/Clontech); bait in pGBK-T7 (Y2HGold), prey in pGAD-T7 (Y187), mated diploids checked on SD-Trp-Leu-His-Ade plates.

Amino acid sequences for entries named in this document (tags omitted).
UniProt Q09725: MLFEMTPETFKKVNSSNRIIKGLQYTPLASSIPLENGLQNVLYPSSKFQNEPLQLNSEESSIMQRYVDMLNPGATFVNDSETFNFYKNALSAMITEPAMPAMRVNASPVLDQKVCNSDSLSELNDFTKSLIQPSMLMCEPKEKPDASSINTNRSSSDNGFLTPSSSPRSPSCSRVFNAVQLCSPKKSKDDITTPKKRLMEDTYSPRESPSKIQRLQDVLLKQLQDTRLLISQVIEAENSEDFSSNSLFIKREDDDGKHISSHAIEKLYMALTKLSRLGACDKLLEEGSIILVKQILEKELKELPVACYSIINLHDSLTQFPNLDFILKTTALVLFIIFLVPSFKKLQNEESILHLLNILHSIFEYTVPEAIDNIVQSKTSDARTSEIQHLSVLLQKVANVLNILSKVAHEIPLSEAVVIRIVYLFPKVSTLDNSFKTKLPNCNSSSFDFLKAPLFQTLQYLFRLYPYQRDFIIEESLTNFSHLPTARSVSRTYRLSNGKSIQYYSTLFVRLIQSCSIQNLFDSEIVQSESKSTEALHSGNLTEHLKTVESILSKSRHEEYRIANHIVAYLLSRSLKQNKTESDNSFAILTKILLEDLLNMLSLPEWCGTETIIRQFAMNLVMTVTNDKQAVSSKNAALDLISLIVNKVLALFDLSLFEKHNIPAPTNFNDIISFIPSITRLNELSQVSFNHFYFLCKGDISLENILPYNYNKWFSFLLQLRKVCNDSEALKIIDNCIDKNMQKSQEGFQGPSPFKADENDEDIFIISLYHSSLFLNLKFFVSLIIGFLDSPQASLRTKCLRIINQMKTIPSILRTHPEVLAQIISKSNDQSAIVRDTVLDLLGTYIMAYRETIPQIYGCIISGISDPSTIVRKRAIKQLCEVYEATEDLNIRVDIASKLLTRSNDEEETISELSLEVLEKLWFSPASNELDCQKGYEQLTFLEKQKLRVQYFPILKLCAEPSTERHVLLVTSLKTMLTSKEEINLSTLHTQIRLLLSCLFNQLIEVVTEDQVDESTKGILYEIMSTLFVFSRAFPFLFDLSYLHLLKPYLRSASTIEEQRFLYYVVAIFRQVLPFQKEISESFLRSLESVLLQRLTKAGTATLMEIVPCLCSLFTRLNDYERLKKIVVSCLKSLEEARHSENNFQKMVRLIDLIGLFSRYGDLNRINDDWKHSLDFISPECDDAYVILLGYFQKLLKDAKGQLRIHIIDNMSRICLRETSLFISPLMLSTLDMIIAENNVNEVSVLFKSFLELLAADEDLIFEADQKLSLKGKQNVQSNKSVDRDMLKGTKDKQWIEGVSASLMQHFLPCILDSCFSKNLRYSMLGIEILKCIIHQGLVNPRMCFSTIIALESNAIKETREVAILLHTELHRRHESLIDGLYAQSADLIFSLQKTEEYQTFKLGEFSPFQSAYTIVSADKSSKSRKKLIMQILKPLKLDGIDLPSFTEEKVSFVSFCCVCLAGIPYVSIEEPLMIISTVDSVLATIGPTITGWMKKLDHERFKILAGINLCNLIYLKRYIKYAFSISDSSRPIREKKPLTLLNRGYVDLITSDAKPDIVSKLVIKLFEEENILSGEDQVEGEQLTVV

Another test has as its target Mis4 (S. pombe) (UniProt Q09725). The test is described as above.

These are yes or no findings as the source states them, for the method shown. Some entries that bind do so weakly or less than the wild type.

B1: N-terminal fragment of Rec8 (1–245 a.a.) (domain or fragment, UniProt P36626 1-245)
chain: MFYNQDVLTKEKGGMGVIWLAATLGSKHSLRKLHKKDIMSVDIDEACDFVAFSPEPLALRLSSNLMIGVTRVWAHQYSFFHSQVSTLHLRVRKELDHFTSKPFKNIDIQNEQTNPKQLLLAEDPAFIPEVSLYDAFNLPSVDLHVDMSSFTQPKENPNISVLETLPDSTSYLINTSQNYSLRNNVSSFVYEDSRAFSTEEPLDFEFDENGDIQELTKGTINSDPSLQAASQHSNLGSVQREYNSE
On to B1, for which the binding entry was “binds” in the test with Pds5 (S. pombe) and “binds weakly” in the test with Mis4 (S. pombe).

B2: Eso1 (protein, UniProt O42917 1-872)
chain: MELGKSKFSWKDLQYCDKAGTQNSPLRVVAHIDQDAFYAQVESVRLGLDHSVPLAVQQWQGLIAVNYAARAANISRHETVTEAKKKCPELCTAHVKTWKAGESEAKYHENPNPNYYKTCLDPYRHESVKILNIIKKHAPVVKKASIDECFIELTSDVKRIVLEEYPYLKIPSEDSNVALPQAPVLLWPAEFGMVIEEEVVDRTKEDYERDWDDVFLFYAAKIVKEIRDDIYLQLKYTCSAGVSFNPMLSKLVSSRNKPNKQTILTKNAIQDYLVSLKITDIRMLGGKFGEEIINLLGTDSIKDVWNMSMDFLIDKLGQTNGPLVWNLCHGIDNTEITTQVQIKSMLSAKNFSQQKVKSEEDAINWFQVFASDLRSRFLELEGMRRPKTICLTVVSRFLRKSRSSQIPMNVDISTQFIVEATSKLLRQLQQEFDVYPISNLSISFQNIIEVDRNSRGIEGFLKKSNDEIYMSTSVSPSIEGRAKLLNENMRENNSFELSSEKDIKSPKRLKRGKGKGIFDMLQQTAVSKPTENSADETYTCEECEQKITLSERNEHEDYHIALSISRKERYNNLVPPSHDKPKQVKPKTYGRKTGSKHYAPLSDETNNKRAFLDAFLGNGGNLTPNWKKQTPKAISNSSDNMTQLHLDLANSTVTCSECSMEYNSTSEEDILLHSRFHSRVLGGVTVSFQCSPIYRVNYGLSSDCIYSINSESSLIDQRKAEEALSFVNNELSSEPIETIGVDKYTTFLFISDKKCVGLLLAERISSAYIVDELELNNNNSTSSAVYIKNENLRKGFVLGISRIWVSASRRKQGIASLLLDNALKKFIYGYVISPAEVAFSQPSESGKQFIISWHRSRNNGSSKSLRYAVYES
Take B2: the binding result with Pds5 (S. pombe) is reported as “binds”.
